Test results: patent US20060019342A1 (AstraZeneca / MedImmune, published 2006)
Results are given in words; binding and its absence hold for the method and conditions named. Some binding calls cover weakened binding; strength is not graded here.

Protein sequences, listed by entry. Tags and fused reporters are not part of them. Residues count along the entry.
UniProt P29317, residues 25-534: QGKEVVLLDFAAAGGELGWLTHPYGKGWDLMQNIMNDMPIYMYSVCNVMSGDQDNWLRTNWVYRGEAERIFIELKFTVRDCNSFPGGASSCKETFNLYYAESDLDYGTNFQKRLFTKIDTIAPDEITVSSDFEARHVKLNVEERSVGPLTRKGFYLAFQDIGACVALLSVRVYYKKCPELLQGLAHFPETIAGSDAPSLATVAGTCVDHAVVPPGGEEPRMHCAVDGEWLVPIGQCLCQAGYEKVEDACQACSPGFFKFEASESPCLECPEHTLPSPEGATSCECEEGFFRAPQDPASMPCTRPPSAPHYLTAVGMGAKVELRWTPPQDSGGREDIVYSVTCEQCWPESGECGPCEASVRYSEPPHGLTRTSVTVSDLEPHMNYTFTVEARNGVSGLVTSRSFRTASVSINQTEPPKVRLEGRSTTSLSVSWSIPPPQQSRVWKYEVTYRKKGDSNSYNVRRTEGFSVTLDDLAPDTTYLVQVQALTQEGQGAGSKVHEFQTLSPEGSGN

Molecular target: T1, EphA2-Fc (UniProt P29317 25-534, limits assumed)
T1 construct: Amine-coupled to a CM5 chip; not shown: Fc part
Assay: SPR (BIAcore), 250 µl transfection supernatant (2nd transfection, 2nd harvest) over EphA2-Fc amine-coupled to a CM5 chip at 4539 RU, 25 °C, 75 µL/min

binding | Binder
binds | 10D3/M (antibody, V domains shown) VH: QMQLVQSGPEVKKPGTSVKVSCKASGFTFDDYSMTWVRQARGQRLEWIGFIRNKANAYTTEYADSVKGRVTITRDMSTSTAYMELSSLRSEDTAVYYCARYPRYHAMDSWGQGTSVTVSS VL: DIQMTQSPSSLSASVGDRVTITCRASQSISNNLHWYQQKPGKAPKLLIKYAFQSISGVPSRFSGSGSGTDFTFTISSLQPEDFATYYCQQANSWPLTFGGGTKVEIK
binds | 12G3/M, heavy chain modified 12G3 (S60A/A61D, Kabat) (antibody, human IgG1, V domains shown, The light chain is unaltered; Human IgG1 / kappa; also called 12G3/Mut) VH: QMQLVQSGPEVKKPGTSVKVSCKASGFTFDDYSMNWVRQARGQRLEWIGFIRNKANDYTTEYADSVKGRVTITRDMSTSTAYMELSSLRSEDTAVYYCARYPRHHAMDSWGQGTSVTVSS VL: DIQMTQSPSSLSASVGDRVTITCRASQSISNNLHWYQQKPGKAPKLLIKYAFQSISGVPSRFSGSGSGTDFTFTISSLQPEDFATYYCQQANSWPLTFGGGTKVEIK
binds | 4B11 humanized anti-EphA2 monoclonal antibody (antibody, human IgG1, V domains shown) VH: QMQLVQSGPEVKKPGTSVKVSCKASGFTFTDYSMNWVRQARGQRLEWIGFIRNKANSYTTEYSASVKGRVTITRDMSTSTAYMELSSLRSEDTAVYYCARYPRHHAMDSWGQGTSVTVSS VL: DIQMTQSPSSLSASVGDRVTITCRASQSISNNLHWYQQKPGKAPKLLIKYAFQSISGVPSRFSGSGSGTDFTFTISSLQPEDFATYYCQQSNSWPLTFGGGTKVEIK
binds | 4B11/M (antibody, V domains shown) VH: QMQLVQSGPEVKKPGTSVKVSCKASGFTFTDYSMNWVRQARGQRLEWIGFIRNKANSYTTEYADSVKGRVTITRDMSTSTAYMELSSLRSEDTAVYYCARYPRHHAMDSWGQGTSVTVSS VL: DIQMTQSPSSLSASVGDRVTITCRASQSISNNLHWYQQKPGKAPKLLIKYAFQSISGVPSRFSGSGSGTDFTFTISSLQPEDFATYYCQQSNSWPLTFGGGTKVEIK
binds | 10D3 humanized anti-EphA2 monoclonal antibody (antibody, human IgG1, V domains shown) VH: QMQLVQSGPEVKKPGTSVKVSCKASGFTFDDYSMTWVRQARGQRLEWIGFIRNKANAYTTEYSASVKGRVTITRDMSTSTAYMELSSLRSEDTAVYYCARYPRYHAMDSWGQGTSVTVSS VL: DIQMTQSPSSLSASVGDRVTITCRASQSISNNLHWYQQKPGKAPKLLIKYAFQSISGVPSRFSGSGSGTDFTFTISSLQPEDFATYYCQQANSWPLTFGGGTKVEIK
binds | G5 humanized anti-EphA2 monoclonal antibody (antibody, human IgG1, V domains shown) VH: QMQLVQSGPEVKKPGTSVKVSCKASGFTFTDYSMNWVRQARGQRLEWIGFIRNKANDYTTEYSASVKGRVTITRDMSTSTAYMELSSLRSEDTAVYYCARYPRYHAMDSWGQGTSVTVSS VL: DIQMTQSPSSLSASVGDRVTITCRASQSISNNLHWYQQKPGKAPKLLIKYVFQSISGVPSRFSGSGSGTDFTFTISSLQPEDFATYYCQQSNSWPLTFGGGTKVEIK
binds | 1E11/M (antibody, V domains shown) VH: QMQLVQSGPEVKKPGTSVKVSCKASGFTFDDYSMTWVRQARGQRLEWIGFIRNKANDYTTEYADSVKGRVTITRDMSTSTAYMELSSLRSEDTAVYYCARYPRYHAMDSWGQGTSVTVSS VL: DIQMTQSPSSLSASVGDRVTITCRASQSISNNLHWYQQKPGKAPKLLIKYTFQSISGVPSRFSGSGSGTDFTFTISSLQPEDFATYYCQQANSWPLTFGGGTKVEIK
binds | 1E11 humanized anti-EphA2 monoclonal antibody (antibody, human IgG1, V domains shown) VH: QMQLVQSGPEVKKPGTSVKVSCKASGFTFDDYSMTWVRQARGQRLEWIGFIRNKANDYTTEYSASVKGRVTITRDMSTSTAYMELSSLRSEDTAVYYCARYPRYHAMDSWGQGTSVTVSS VL: DIQMTQSPSSLSASVGDRVTITCRASQSISNNLHWYQQKPGKAPKLLIKYTFQSISGVPSRFSGSGSGTDFTFTISSLQPEDFATYYCQQANSWPLTFGGGTKVEIKE
binds | G5/M (antibody, V domains shown) VH: QMQLVQSGPEVKKPGTSVKVSCKASGFTFTDYSMNWVRQARGQRLEWIGFIRNKANDYTTEYADSVKGRVTITRDMSTSTAYMELSSLRSEDTAVYYCARYPRYHAMDSWGQGTSVTVSS VL: DIQMTQSPSSLSASVGDRVTITCRASQSISNNLHWYQQKPGKAPKLLIKYVFQSISGVPSRFSGSGSGTDFTFTISSLQPEDFATYYCQQSNSWPLTFGGGTKVEIK
binds | 4C10/M, heavy chain modified 4C10 (S60A/A61D, Kabat) (antibody, human IgG1, V domains shown, The light chain is unaltered; Human IgG1 / kappa; also called 4C10/Mut) VH: QMQLVQSGPEVKKPGTSVKVSCKASGFTFDDYSMTWVRQARGQRLEWIGFIRNKANAYTTEYADSVKGRVTITRDMSTSTAYMELSSLRSEDTAVYYCARYPRHHAMDSWGQGTSVTVSS VL: DIQMTQSPSSLSASVGDRVTITCRASQSISNNLHWYQQKPGKAPKLLIKYAFQSISGVPSRFSGSGSGTDFTFTISSLQPEDFATYYCQQSNSWPLTFGGGTKVEIK
binds | 4C10 humanized anti-EphA2 monoclonal antibody (antibody, human IgG1, V domains shown, Expressed in HEK 293 cells as soluble human IgG1 (human gamma 1 heavy chain, human kappa light chain)) VH: QMQLVQSGPEVKKPGTSVKVSCKASGFTFDDYSMTWVRQARGQRLEWIGFIRNKANAYTTEYSASVKGRVTITRDMSTSTAYMELSSLRSEDTAVYYCARYPRHHAMDSWGQGTSVTVSS VL: DIQMTQSPSSLSASVGDRVTITCRASQSISNNLHWYQQKPGKAPKLLIKYAFQSISGVPSRFSGSGSGTDFTFTISSLQPEDFATYYCQQSNSWPLTFGGGTKVEIK
binds | 12G3 humanized anti-EphA2 monoclonal antibody (antibody, human IgG1, V domains shown, Expressed as soluble human IgG1 (human gamma 1, human kappa)) VH: QMQLVQSGPEVKKPGTSVKVSCKASGFTFDDYSMNWVRQARGQRLEWIGFIRNKANDYTTEYSASVKGRVTITRDMSTSTAYMELSSLRSEDTAVYYCARYPRHHAMDSWGQGTSVTVSS VL: DIQMTQSPSSLSASVGDRVTITCRASQSISNNLHWYQQKPGKAPKLLIKYAFQSISGVPSRFSGSGSGTDFTFTISSLQPEDFATYYCQQANSWPLTFGGGTKVEIK
